Results on one compound are retold here after publication PMC9315884, “New Membrane Active Antibacterial and Antiviral Amphiphiles Derived from Heterocyclic Backbone of Pyridinium-4-Aldoxime” (Pharmaceuticals, 2022).

In assay [1] the test system is Escherichia coli ATCC25922. Briefly: Broth microdilution assay (MIC). Format: cell-based. The procedure:
(§1) The antibacterial activity of all compounds was evaluated by determining the minimum inhibitory concentration (MIC), which is defined as the lowest concentration of the compound at which no visible bacterial growth is detected. The compounds were tested against representatives of Gram-positive and Gram-negative strains, including the ESKAPE bacterium Staphylococcus aureus ATCC25923 and the clinical isolate of methicillin-resistant S. aureus (MRSA), which are known for their pathogenicity.
(§2) All microbial strains were maintained at ™80 °C for long-term storage and subcultured on Mueller-Hinton (MH) agar (Biolife, Italy) prior to broth microdilution experiments. The MH plates were stored at +4 °C for no longer than one month.
(§3) Antibacterial activity was evaluated using the Broth Microdilution Assay according to the Clinical and Laboratory Standard Institute’s Methods for Dilution Antimicrobial Susceptibility Test for Bacteria That Grow Aerobically; Approved Standard-Tenth Edition.
(§4) The stock solution of QAS (10 mg/mL) was prepared in 4% DMSO. Then, 100 µL of the tested QAS was added to the first well of the microtiter plate. Twofold serial dilutions in Muller-Hinton broth were performed over the entire plate at a concentration range of 5 mg/mL to 5 µg/mL. […] The minimum inhibitory concentration (MIC) was determined as the lowest concentration at which no visually detectable bacterial growth occurred in the wells.

In assay [2] the test system is Pseudomonas aeruginosa ATCC27853. Put plainly: Broth microdilution assay (MIC). The assay is classed as cell-based. The method, then:
as §1, §2, §3, §4

In assay [3] the test system is Staphylococcus aureus ATCC25923. Briefly: Broth microdilution assay (MIC). Format: cell-based. The method, then: as §1, §2, §3, §4
The subject of assay [4] is Bacillus cereus ATCC14579. Put plainly: Broth microdilution assay (MIC). The assay is classed as cell-based. The method, then:
as §1, §2, §3, §4

The subject of assay [5] is Listeria monocytogenes ATCC7644. Put plainly: Broth microdilution assay (MIC). Format: cell-based. The procedure:
as §1, §2, §3, §4

For assay [6], the system named is Enterococcus faecalis ATCC29212. Briefly: Broth microdilution assay (MIC). The assay is classed as cell-based. The procedure:
as §1, §2, §3, §4

In assay [7] the test system is MRSA in the biofilm state. The following applies: cited from earlier work.
Assay [8] deals with RPE1 cells. Briefly: Cytotoxicity (MTS assay). As to conditions: Homo sapiens, RPE-1, 48 h, read-out: IC50 (50% inhibition of cell growth). The method, then: (§5) Keratinocytes are the primary cell type found in the outermost layer of the skin. Therefore, HaCaT cells were used as a model for human skin, and RPE1 are retinal pigment epithelial cells, thus a model for epithelial cell type.
(§6) Cells were grown in DMEM media in a humidified environment with 5% CO2 and 37 °C. To determine cytotoxicity, a twofold serial dilution of a tested compound starting at 5 mg/mL was prepared in a 96-well plate. Five thousand cells were pipetted into each well, and the cells were grown for an additional 48 h. Then, the reagent MTS (20 μL) was added to the cells according to the manufacturer’s instructions (CellTiter 96® Aqueous One Solution Cell Proliferation Assay, Promega). After 3 h of incubation, the absorbance was measured at 490 nm. IC50 values were determined by plotting compound concentration against absorbance using GraFit6 software.

Assay [9] relates to HaCaT cells. Put plainly: Cytotoxicity (MTS assay). As to conditions: Homo sapiens, 48 h, read-out: IC50 (50% inhibition of cell growth). The procedure: as §5, §6
The subject of assay [10] is methicillin-resistant Staphylococcus aureus clinical strain MRSA. Briefly: Broth microdilution assay (MIC). The assay is classed as cell-based. The procedure: as §1
(§7) The collection included five Gram-positive strains, including Staphylococcus aureus (ATCC 25923 and a methicillin-resistant Staphylococcus aureus clinical strain MRSA), Bacillus cereus ATCC 14579, Enterococcus faecalis ATCC 29212, and Listeria monocytogenes ATCC 7644; and three Gram-negative strains: Escherichia coli ATCC 25922, Pseudomonas aeruginosa ATCC 27853 and the food isolate Salmonella enterica. […]
as §3
(§8) The stock solution of QAS (10 mg/mL) was prepared in 4% DMSO. […] The minimum inhibitory concentration (MIC) was determined as the lowest concentration at which no visually detectable bacterial growth occurred in the wells.

Assay [11] concerns Salmonella enterica food isolate. Briefly: Broth microdilution assay (MIC). The assay is classed as cell-based. The following applies: S. enterica food isolate, standards. The method, then:
as §1, §7, §3, §8

The structures appear in SMILES notation. Values joined by “and” are separate entries in the source; they are usually repeats but may differ in a detail not shown here. Equal entries are not always repeated.

As for `CCCCCCCCCCCCCCCC[n+]1ccccc1` [CPC, Cetylpyridinium chloride, reference compound], the MIC in [1] is 5.3 µg/mL and 20 µM; in assay [2] it was 850 µg/mL and 250 µM; in assay [3] it was 1.4 µg/mL and 4.1 µM; in [4] it was 5.3 µg/mL and 20 µM; in assay [5] it was 2.7 µg/mL and 10 µM; in assay [6], 2.7 µg/mL and 10 µM. Besides, the MIC was 2.7 µg/mL and 10 µM in assay [10]; 21.2 µg/mL and 60 µM in [11]. Also, the “fold lower efficacy against resistant bacteria” value in [7] is on record as 4 fold. Moreover, the IC50 in assay [8] and in assay [9] was less than 500 µM in each case.
